# Experimental data as given in publication PMC6265344.
# Chains of the proteins cited; added tags and fusions are not shown. Lines headed by an entry give the natural chain unless they say otherwise; changes in a name come on top.
# UniProt Q05639: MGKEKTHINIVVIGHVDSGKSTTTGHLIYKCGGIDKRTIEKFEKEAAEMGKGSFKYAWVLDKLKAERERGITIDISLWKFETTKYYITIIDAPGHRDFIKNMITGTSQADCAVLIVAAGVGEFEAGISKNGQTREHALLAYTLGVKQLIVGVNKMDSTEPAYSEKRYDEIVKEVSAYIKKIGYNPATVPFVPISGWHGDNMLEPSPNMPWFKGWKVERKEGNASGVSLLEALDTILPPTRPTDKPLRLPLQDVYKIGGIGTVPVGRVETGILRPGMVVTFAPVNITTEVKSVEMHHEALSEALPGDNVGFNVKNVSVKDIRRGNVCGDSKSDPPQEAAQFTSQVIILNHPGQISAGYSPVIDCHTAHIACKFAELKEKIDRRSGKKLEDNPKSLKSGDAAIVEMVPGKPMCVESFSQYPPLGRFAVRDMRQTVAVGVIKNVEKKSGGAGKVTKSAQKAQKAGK
# UniProt P19525: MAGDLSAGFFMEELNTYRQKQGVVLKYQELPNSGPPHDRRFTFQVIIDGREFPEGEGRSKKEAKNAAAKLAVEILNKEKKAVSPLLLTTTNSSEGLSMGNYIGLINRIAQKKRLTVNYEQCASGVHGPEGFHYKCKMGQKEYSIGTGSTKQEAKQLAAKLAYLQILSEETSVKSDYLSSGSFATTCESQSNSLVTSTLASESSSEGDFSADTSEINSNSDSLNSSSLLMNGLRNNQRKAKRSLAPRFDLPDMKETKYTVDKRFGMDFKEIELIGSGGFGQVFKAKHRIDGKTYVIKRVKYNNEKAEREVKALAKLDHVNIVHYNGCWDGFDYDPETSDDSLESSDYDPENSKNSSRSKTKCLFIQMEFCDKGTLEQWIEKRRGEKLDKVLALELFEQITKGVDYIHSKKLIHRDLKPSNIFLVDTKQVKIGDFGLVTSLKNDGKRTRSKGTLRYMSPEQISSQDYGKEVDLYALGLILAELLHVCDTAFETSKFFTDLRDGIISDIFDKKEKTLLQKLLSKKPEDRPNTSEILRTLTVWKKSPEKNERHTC
# UniProt P07339: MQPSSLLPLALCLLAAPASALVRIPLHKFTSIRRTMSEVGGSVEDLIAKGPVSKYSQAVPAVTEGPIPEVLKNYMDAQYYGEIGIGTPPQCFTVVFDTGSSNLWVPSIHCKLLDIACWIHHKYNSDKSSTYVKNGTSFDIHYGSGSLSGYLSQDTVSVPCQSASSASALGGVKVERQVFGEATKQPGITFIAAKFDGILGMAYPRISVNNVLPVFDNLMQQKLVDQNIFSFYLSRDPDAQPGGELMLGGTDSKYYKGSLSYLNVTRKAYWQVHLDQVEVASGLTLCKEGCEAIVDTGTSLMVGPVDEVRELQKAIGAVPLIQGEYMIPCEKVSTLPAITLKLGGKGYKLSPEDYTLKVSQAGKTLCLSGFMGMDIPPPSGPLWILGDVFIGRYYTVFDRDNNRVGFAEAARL
# B1: 3-Hydroxyacyl-CoA dehydrogenase type-2 (enzyme, UniProt Q99714 1-261)
# chain: MAAACRSVKGLVAVITGGASGLGLATAERLVGQGASAVLLDLPNSGGEAQAKKLGNNCVFAPADVTSEKDVQTALALAKGKFGRVDVAVNCAGIAVASKTYNLKKGQTHTLEDFQRVLDVNLMGTFNVIRLVAGEMGQNEPDQGGQRGVIINTASVAAFEGQVGQAAYSASKGGIVGMTLPIARDLAPIGIRVMTIAPGLFGTPLLTSLPEKVCNFLASQVPFPSRLGDPAEYAHLVQAIIENPFLNGEVIRLDGAIRMQP
# B2: Peroxisomal multifunctional enzyme type 2 (enzyme, UniProt P51659 1-736)
# chain: MGSPLRFDGRVVLVTGAGAGLGRAYALAFAERGALVVVNDLGGDFKGVGKGSLAADKVVEEIRRRGGKAVANYDSVEEGEKVVKTALDAFGRIDVVVNNAGILRDRSFARISDEDWDIIHRVHLRGSFQVTRAAWEHMKKQKYGRIIMTSSASGIYGNFGQANYSAAKLGLLGLANSLAIEGRKSNIHCNTIAPNAGSRMTQTVMPEDLVEALKPEYVAPLVLWLCHESCEENGGLFEVGAGWIGKLRWERTLGAIVRQKNHPMTPEAVKANWKKICDFENASKPQSIQESTGSIIEVLSKIDSEGGVSANHTSRATSTATSGFAGAIGQKLPPFSYAYTELEAIMYALGVGASIKDPKDLKFIYEGSSDFSCLPTFGVIIGQKSMMGGGLAEIPGLSINFAKVLHGEQYLELYKPLPRAGKLKCEAVVADVLDKGSGVVIIMDVYSYSEKELICHNQFSLFLVGSGGFGGKRTSDKVKVAVAIPNRPPDAVLTDTTSLNQAALYRLSGDWNPLHIDPNFASLAGFDKPILHGLCTFGFSARRVLQQFADNDVSRFKAIKARFAKPVYPGQTLQTEMWKEGNRIHFQTKVQETGDIVISNAYVDLAPTSGTSAKTPSEGGKLQSTFVFEEIGRRLKDIGPEVVKKVNAVFEWHITKGGNIGAKWTIDLKSGSGKVYQGPAKGAADTTIILSDEDFMEVVLGKLDPQKAFFSGRLKARGNIMLSQKLQMILKDYAKL
# B3: Zinc-finger protein 622 (protein, UniProt Q969S3 1-477)
# chain: MATYTCITCRVAFRDADMQRAHYKTDWHRYNLRRKVASMAPVTAEGFQERVRAQRAVAEEESKGSATYCTVCSKKFASFNAYENHLKSRRHVELEKKAVQAVNRKVEMMNEKNLEKGLGVDSVDKDAMNAAIQQAIKAQPSMSPKKAPPAPAKEARNVVAVGTGGRGTHDRDPSEKPPRLQWFEQQAKKLAKQQEEDSEEEEEDLDGDDWEDIDSDEELECEDTEAMDDVVEQDAEEEEAEEGPPLGAIPITDCLFCSHHSSSLMKNVAHMTKDHSFFIPDIEYLSDIKGLIKYLGEKVGVGKICLWCNEKGKSFYSTEAVQAHMNDKSHCKLFTDGDAALEFADFYDFRSSYPDHKEGEDPNKAEELPSEKNLEYDDETMELILPSGARVGHRSLMRYYKQRFGLSRAVAVAKNRKAVGRVLQQYRALGWTGSTGAALMRERDMQYVQRMKSKWMLKTGMKNNATKQMHFRVQVRF
# Target: eEF1A2-tGFP (human) (UniProt Q05639)
# Test: affinity purification with mass spectrometry; lysate of HeLa cells stably transfected with eEF1A2-tGFP immunoprecipitated with anti-tGFP antibody; wt HeLa cells processed identically as control; mass spectrometry-based proteomics, hits filtered
row,binding,Molecule
1,binds,"Interferon-induced, double-stranded RNA-activated protein kinase (PKR) (from UniProt P19525 1-551) (enzyme)"
2,binds,Cathepsin D (from UniProt P07339) (enzyme)
3,binds,B1
4,binds,B2
5,binds,B3

# Results are given in words; binding and its absence hold for the method and conditions named. In cells and extracts the contact can be indirect. These calls come from enrichment with a bait or labelling near it, and not all partners need be listed.
